Measurements reported in PubChem BioAssay AID602196 (INSERM, 2012)
In all, the deposit lists about 23,000 reagents; this is a random part of them. Of all reagents, 455 (2%) got an active call. 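Active includes both protection and sensitisation; some change values fall well beyond the stated -50 to +50 range.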 Reagents against one gene are numbered here. Further read-outs or replicates are left out here. Reagent sequences are not shown. Not stated in the record: the amount of reagent.

Assay: 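Knock-downs that protect lung cancer cells from cisplatin or sensitise them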
Cell system: human A549 lung cancer cells
Knock-down reagent: siRNA pair against human genes
Timing: 48 h transfection before cisplatin; time from cisplatin to read-out not stated
Treatment: cisplatin at a dose killing half of control-siRNA cells; exact dose and duration not given
Detection: 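Cisplatin cell death as a shift from the 50% death seen with control siRNA; siRNAs toxic or growth-blocking alone scored 0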
Scale: two-siRNA summed score (-2 to +2): higher = both siRNAs protect from cisplatin killing; -2 means both sensitise
Hit rule: 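Each siRNA scores 0 if harmful alone by LDH or WST-1, otherwise +1 if it reduces and -1 if it increases cisplatin killing; a gene is active when both siRNAs agree (sum +2 or -2)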
Meaning of the calls: active = both siRNAs shift cisplatin killing the same way; inactive = no consistent shift, or siRNA harmful alone

| gene symbol | reagent no. | two-siRNA summed score (-2 to +2) | activity call |
| --- | --- | --- | --- |
| FLJ21159 | 1 | 0 | inactive |
| JPT2 | 1 | 1 | inactive |
| LOC401611 | 1 | 0 | inactive |
| CLEC20A | 1 | 0 | inactive |
| IL38 | 1 | 0 | inactive |
| PCSK4 | 1 | 0 | inactive |
| FLJ11539 | 1 | 0 | inactive |
| LOC442691 | 1 | 1 | inactive |
| MACROH2A2 | 1 | 0 | inactive |
| MVD | 1 | 0 | inactive |
| POM121L12 | 1 | 0 | inactive |
| TMEM123 | 1 | 0 | inactive |
| LOC441346 | 1 | 0 | inactive |
| RP9 | 1 | 0 | inactive |
| DACH1 | 1 | 1 | inactive |
| CPPED1 | 1 | 1 | inactive |
| CRELD1 | 1 | 0 | inactive |
| PWWP2B | 1 | 0 | inactive |
| OR4F15 | 1 | 0 | inactive |
| PLPP4 | 1 | 0 | inactive |
| OCIAD1 | 1 | 0 | inactive |
| LOC440747 | 1 | 1 | inactive |

Laid out differently: results already given
gene symbol | reagent no. | two-siRNA summed score (-2 to +2) | activity call
MACROH2A2 | 1 | 0 | inactive
MVD | 1 | 0 | inactive
POM121L12 | 1 | 0 | inactive
TMEM123 | 1 | 0 | inactive
LOC441346 | 1 | 0 | inactive

The list goes on.
| gene symbol | reagent no. | two-siRNA summed score (-2 to +2) | activity call |
| --- | --- | --- | --- |
| ZSWIM4 | 1 | 0 | inactive |
| GZMA | 1 | 0 | inactive |
| OR5P3 | 1 | -1 | inactive |
| KICS2 | 1 | 0 | inactive |
| MGC70870 | 1 | 0 | inactive |
| LOC441093 | 1 | 0 | inactive |
| HNRNPA1P39 | 1 | 0 | inactive |
| RIMS1 | 1 | 1 | inactive |
| ERI1 | 1 | 0 | inactive |
| UBE2E1 | 1 | 0 | inactive |
| RHOBTB2 | 1 | 2 | active |
| RPS18 | 1 | 0 | inactive |
| CDSN | 1 | 0 | inactive |
| MT4 | 1 | 0 | inactive |
| LOC400714 | 1 | 0 | inactive |
| LOC400944 | 1 | 0 | inactive |
| LOC344191 | 1 | 0 | inactive |
| MIR1915HG | 1 | 0 | inactive |
| USP48 | 1 | -1 | inactive |
| INSRR | 1 | 0 | inactive |
| LUC7L3 | 1 | 0 | inactive |
| NOL10 | 1 | 0 | inactive |
| DTX2 | 1 | 0 | inactive |
| FAM50A | 1 | 0 | inactive |
| LOC440901 | 1 | 0 | inactive |
| DHDH | 1 | 1 | inactive |
| PAEP | 1 | 0 | inactive |
| PDLIM7 | 1 | 0 | inactive |
| SZT2 | 1 | 0 | inactive |
| SZT2 | 2 | 0 | inactive |
| LOC401943 | 1 | 0 | inactive |
| SMARCB1 | 1 | 1 | inactive |
| PRSS1 | 1 | 0 | inactive |
| DGUOK | 1 | 0 | inactive |
| LRIT3 | 1 | -1 | inactive |
